In assay [1] the target is T1, Histone deacetylase 7 (human (endogenous in WI-38)) (UniProt Q8WUI4).
T1 sequence: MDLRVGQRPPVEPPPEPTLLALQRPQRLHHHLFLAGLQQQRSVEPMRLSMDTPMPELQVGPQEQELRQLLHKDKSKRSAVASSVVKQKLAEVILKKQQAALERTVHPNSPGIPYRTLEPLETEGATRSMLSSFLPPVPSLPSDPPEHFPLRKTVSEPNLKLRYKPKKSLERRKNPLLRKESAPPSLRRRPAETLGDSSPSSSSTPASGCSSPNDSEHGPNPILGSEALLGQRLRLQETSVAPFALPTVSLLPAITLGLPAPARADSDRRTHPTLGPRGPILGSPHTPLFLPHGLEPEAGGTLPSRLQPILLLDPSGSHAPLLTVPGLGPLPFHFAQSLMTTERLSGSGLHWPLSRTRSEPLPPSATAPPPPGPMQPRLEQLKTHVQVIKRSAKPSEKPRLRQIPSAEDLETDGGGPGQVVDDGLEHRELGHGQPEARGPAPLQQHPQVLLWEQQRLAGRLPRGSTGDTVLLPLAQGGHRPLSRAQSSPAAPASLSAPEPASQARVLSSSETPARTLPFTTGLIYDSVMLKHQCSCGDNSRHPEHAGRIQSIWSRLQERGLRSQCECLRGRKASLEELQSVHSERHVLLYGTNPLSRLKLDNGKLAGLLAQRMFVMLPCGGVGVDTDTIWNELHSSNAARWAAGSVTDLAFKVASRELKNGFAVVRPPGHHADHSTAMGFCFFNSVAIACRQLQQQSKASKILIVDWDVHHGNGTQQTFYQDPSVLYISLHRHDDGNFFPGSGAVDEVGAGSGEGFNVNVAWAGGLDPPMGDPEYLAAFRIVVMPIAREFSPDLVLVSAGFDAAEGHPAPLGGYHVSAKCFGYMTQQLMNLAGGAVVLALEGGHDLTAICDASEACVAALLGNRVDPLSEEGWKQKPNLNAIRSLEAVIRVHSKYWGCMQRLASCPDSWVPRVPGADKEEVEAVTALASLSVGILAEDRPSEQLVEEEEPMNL
In words: co-IP; WI-38 cells treated with ET-1 (10 nM) for 10 min; supernatants immunoprecipitated with antibodies specific for HDAC7, c-Jun or p300 with protein A beads overnight at 4 °C; Western blotting; also after transfection of HDAC7 siRNA or p300 siRNA for 24 h. On the technique in general: Immunoblotting shows a protein as a band on a membrane.

Protein sequences, listed by entry. Tags and fused reporters are not part of them.
UniProt P05412: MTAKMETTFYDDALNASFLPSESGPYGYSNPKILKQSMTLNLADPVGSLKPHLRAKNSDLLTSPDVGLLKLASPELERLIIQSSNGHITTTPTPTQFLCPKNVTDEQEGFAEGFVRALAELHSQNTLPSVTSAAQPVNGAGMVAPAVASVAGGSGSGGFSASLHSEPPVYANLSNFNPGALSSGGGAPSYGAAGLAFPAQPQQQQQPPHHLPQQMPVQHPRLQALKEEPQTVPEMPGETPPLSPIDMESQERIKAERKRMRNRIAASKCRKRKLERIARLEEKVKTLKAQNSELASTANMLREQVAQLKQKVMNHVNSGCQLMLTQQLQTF
UniProt Q09472: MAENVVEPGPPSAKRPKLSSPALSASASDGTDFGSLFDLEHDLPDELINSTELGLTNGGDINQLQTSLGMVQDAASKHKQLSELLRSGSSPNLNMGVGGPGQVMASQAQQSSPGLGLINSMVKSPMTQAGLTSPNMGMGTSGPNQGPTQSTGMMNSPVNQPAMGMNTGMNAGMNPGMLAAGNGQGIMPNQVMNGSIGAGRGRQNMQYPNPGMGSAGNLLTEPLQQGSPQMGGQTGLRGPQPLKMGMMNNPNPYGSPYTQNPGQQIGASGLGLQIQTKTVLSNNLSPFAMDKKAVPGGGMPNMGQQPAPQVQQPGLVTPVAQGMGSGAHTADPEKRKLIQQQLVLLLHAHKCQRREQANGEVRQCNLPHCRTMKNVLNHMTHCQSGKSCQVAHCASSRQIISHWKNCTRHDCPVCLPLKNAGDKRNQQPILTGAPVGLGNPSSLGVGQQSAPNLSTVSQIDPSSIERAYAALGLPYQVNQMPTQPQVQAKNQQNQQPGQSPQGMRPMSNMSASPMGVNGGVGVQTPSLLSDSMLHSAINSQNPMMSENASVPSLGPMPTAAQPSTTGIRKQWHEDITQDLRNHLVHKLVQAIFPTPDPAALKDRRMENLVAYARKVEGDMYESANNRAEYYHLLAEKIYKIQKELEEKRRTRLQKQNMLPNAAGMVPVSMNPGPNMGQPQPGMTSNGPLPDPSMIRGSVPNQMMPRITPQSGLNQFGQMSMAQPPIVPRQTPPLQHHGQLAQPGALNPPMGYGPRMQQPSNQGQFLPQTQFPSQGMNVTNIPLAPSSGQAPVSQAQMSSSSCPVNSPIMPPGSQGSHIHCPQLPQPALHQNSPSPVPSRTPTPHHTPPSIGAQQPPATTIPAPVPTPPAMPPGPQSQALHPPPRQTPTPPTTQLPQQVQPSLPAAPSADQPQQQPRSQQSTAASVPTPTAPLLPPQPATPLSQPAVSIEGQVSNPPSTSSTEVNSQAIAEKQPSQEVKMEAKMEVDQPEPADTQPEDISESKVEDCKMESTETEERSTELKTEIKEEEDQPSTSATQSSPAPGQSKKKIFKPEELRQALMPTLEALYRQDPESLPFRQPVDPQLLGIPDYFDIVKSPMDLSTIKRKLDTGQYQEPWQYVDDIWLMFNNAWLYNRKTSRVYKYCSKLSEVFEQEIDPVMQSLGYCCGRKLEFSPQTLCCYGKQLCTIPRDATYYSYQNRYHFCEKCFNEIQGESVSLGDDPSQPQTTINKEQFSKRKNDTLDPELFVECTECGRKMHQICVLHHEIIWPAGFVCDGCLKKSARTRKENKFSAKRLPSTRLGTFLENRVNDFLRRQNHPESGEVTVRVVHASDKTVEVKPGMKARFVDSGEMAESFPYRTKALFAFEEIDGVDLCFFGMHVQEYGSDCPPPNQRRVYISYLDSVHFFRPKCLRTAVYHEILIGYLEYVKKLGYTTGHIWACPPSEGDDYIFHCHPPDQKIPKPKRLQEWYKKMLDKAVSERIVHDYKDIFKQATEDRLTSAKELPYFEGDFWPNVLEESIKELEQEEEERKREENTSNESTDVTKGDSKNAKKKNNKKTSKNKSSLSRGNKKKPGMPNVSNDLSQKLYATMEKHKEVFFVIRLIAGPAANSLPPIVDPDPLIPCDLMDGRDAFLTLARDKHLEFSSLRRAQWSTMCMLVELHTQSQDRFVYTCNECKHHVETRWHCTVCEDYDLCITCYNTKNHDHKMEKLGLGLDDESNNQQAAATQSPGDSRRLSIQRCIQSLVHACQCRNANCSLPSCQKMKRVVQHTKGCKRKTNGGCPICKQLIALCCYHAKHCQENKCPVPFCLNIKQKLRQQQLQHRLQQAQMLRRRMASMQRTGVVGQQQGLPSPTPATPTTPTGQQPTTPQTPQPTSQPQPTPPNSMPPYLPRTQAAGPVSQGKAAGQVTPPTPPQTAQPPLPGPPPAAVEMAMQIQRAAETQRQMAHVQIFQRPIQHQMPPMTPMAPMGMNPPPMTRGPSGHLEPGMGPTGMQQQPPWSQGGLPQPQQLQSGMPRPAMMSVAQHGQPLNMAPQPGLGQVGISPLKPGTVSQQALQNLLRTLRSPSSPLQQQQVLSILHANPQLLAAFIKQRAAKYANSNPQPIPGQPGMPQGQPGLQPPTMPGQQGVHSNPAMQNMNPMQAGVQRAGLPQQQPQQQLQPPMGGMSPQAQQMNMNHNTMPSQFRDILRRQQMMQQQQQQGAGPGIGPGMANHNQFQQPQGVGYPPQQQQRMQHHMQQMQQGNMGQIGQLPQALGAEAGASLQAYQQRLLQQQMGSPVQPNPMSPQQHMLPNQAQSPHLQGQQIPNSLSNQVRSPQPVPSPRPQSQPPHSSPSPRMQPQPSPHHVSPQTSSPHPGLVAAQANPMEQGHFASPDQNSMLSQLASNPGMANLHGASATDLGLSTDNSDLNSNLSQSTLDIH

Assay [2] concerns the target c-Jun (human (endogenous in WI-38)) (UniProt P05412). The description is as above.

These are yes or no findings as the source states them, for the method shown. In cells and extracts the contact can be indirect. Some binding calls cover weakened binding; strength is not graded here. Tags and fused reporters may be left off the sequences shown.

Regarding p300 (from UniProt Q09472 1-2414), the binding entry in assay [1] is given as “binds”.

B1: Histone deacetylase 7 (protein, UniProt Q8WUI4 1-952)
chain: T1 sequence
For the molecule B1, the binding entry in assay [2] is reported as “binds”.

The record behind these values is publication PMC8135160.
